Laboratory results: US20250221936A1, “ENGINEERED HEMICHANNELS, ENGINEERED VESICLES, AND USES THEREOF” (VIRGINIA TECH INTELLECTUAL PROPERTIES, INC., priority 2018, published 2025)
Some entries share one result that the patent states for a list of compounds. No end group written: not given here. *: point of attachment. Biotin = O=C1N[C@H]2[C@H](CS[C@H]2CCCCC(=O)*)N1

The chains behind the UniProt entries cited, without tags or fusion partners. Residues count along the entry.
UniProt P08050, 255-382: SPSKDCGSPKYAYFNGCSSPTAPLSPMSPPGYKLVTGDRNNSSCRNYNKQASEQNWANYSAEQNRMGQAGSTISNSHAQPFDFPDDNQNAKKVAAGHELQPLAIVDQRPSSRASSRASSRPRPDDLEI

Biological target: T1, PKC-ε phosphorylation of Cx43-CT substrate at Ser368 (Rattus norvegicus, UniProt P08050)
T1 construct: substrate (Cx43-CT: amino acids 255 to 382); GST (N); made in house; host or cells: E. coli BL21 (Cx43 CT); PKC-ε purchased (Life, 37717L)
Assay: PKC-ε Cx43 CT S368 phosphorylation assay
Format: biochemical
Conditions: peptides at 20 μM; greater than non-Cx43 CT interacting peptides
Experimental: PKC assay conditions were used to evaluate the PKC-ε phosphorylation of Cx43-CT substrate at Ser368 as we have described previously, with modifications 11. 400 ng/ml […] (Life, 37717L, Carlsbad, CA) was pre-diluted in enzyme dilution buffer (10 mM HEPES pH7.4, 0.01% CHAPS and 5 mM DTT) and assayed in 20 mM HEPES pH7.4, 10 mM/L MgCl2, 0.1 mM EGTA, 1× lipid mix (200 μg/ml phosphatidylserine (Avanti Polar Lipids 840032C),^20 μg/ml Diacylglycerol (Avanti Polar Lipids), 1 mM HEPES pH7.4, 0.03% CHAPS), 500 µM ATP (Sigma, A6419) and 14 μg/ml Cx43-CT substrate. Kinase assay buffer was supplemented with peptides to produce final concentrations of the reaction constituents, as indicated in figure legends. The mixture was incubated at 37° C. for 12 minutes and quenched by addition of LDS sample loading buffer (Bio Rad, 1610791). “XT sample buffer” is what was shown on the product label, whereas the component is similar as regular LDS buffer, containing about 5-10% lithium dodecyl sulphate. The reaction was Western blotted for pS368 Cx43 using the Phospho-Connexin43 (Ser368) antibody from Cell Signaling. Proteins were eluted off by stripping buffer (Millipore 2504) and re-probed for total Cx43 using the Sigma anti-rabbit antibody. Percent phosphorylation (% P) was quantified using Equation 1 and normalized with control group (PKC+, no peptide added).

Biotin-RPRPDDLEI [biotin-alpha CT11]
ability to induce S368 phosphorylation: 3-5 fold

RQPKIWFPNRRKPWKKRPRPDDLEI [alpha CT1]
ability to induce S368 phosphorylation: 3-5 fold
